Measured data: PubChem BioAssay AID1159584 (Peter MacCallum Cancer Centre, 2016)

Screen: 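Genes whose loss is lethal only together with E-cadherin loss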 (primary screen)
System: human MCF10A breast epithelial cells, parental and CDH1-null
Reagent: siRNA against human genes
Read-out: 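ATP luminescence (CellTiter-Glo) viability per line relative to mean mock wells over all plates, and the ratio of CDH1-null to parental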
Direction: CDH1-null / parental viability ratio: higher = CDH1-null cells survive relatively better than parental; CDH1-null viability vs mock: higher = more viable CDH1-null cells
Units: CDH1-null viability vs mock in fraction of mock
The whole screen tested about 18,000 reagents; below is an unselected part. Not all columns of the deposit are shown. Not given: the amount of reagent, the time to read-out.

LAMP5 scored CDH1-null / parental viability ratio 1.03; CDH1-null viability vs mock 1.1.
KRTAP19-1 showed CDH1-null / parental viability ratio 1.01; CDH1-null viability vs mock 0.72.
After knock-down of NSMCE1 the results were CDH1-null / parental viability ratio 0.87; CDH1-null viability vs mock 0.96.
OR4K2 gave CDH1-null / parental viability ratio 0.85; CDH1-null viability vs mock 0.57.
For PIK3CB, the values are CDH1-null / parental viability ratio 0.9; CDH1-null viability vs mock 0.74.
UQCC3 showed CDH1-null / parental viability ratio 0.92; CDH1-null viability vs mock 0.73.
Depletion of ZBTB7B resulted in: CDH1-null / parental viability ratio 1.11; CDH1-null viability vs mock 0.71.
With knock-down of C11orf65 the results were CDH1-null / parental viability ratio 0.88; CDH1-null viability vs mock 0.74.
After knock-down of TMPRSS11F the results were CDH1-null / parental viability ratio 1.07; CDH1-null viability vs mock 0.93.
SCGB1D4 showed CDH1-null / parental viability ratio 0.97; CDH1-null viability vs mock 1.02.
Knock-down of LRFN3 resulted in: CDH1-null / parental viability ratio 0.94; CDH1-null viability vs mock 0.75.
PNISR scored CDH1-null / parental viability ratio 1.09; CDH1-null viability vs mock 0.89.
Against SLC9A8 the deposit lists CDH1-null / parental viability ratio 1.05; CDH1-null viability vs mock 0.96.
After knock-down of DLK1 the results were CDH1-null / parental viability ratio 0.84; CDH1-null viability vs mock 0.72.
Against PRG3, the values are CDH1-null / parental viability ratio 1.07; CDH1-null viability vs mock 1.23.
NOP2 showed CDH1-null / parental viability ratio 0.73; CDH1-null viability vs mock 0.51.
After knock-down of ZFP14, the record shows CDH1-null / parental viability ratio 0.93; CDH1-null viability vs mock 0.77.
After knock-down of FANCE, the record shows CDH1-null / parental viability ratio 1.15; CDH1-null viability vs mock 0.69.
With knock-down of MRPS17, the record shows CDH1-null / parental viability ratio 1.38; CDH1-null viability vs mock 0.66.
Against PTDSS2 the deposit lists CDH1-null / parental viability ratio 1.17; CDH1-null viability vs mock 0.97.
For DTD1, the values are CDH1-null / parental viability ratio 1.01; CDH1-null viability vs mock 0.86.
Against NCMAP, the values are CDH1-null / parental viability ratio 1.12; CDH1-null viability vs mock 0.72.
After knock-down of PPAT the results were CDH1-null / parental viability ratio 1.35; CDH1-null viability vs mock 0.92.
PLAAT1 gave CDH1-null / parental viability ratio 1.02; CDH1-null viability vs mock 0.92.
CES4A gave CDH1-null / parental viability ratio 0.9; CDH1-null viability vs mock 0.64.
RAD50 gave CDH1-null / parental viability ratio 1.17; CDH1-null viability vs mock 0.97.
Against SSNA1, the entry reads CDH1-null / parental viability ratio 1.33; CDH1-null viability vs mock 0.72.
Knock-down of MIB2 came out at: CDH1-null / parental viability ratio 1.05; CDH1-null viability vs mock 0.99.
Against SHMT2, the entry reads CDH1-null / parental viability ratio 1.09; CDH1-null viability vs mock 0.87.
Against CCDC122 the deposit lists CDH1-null / parental viability ratio 0.89; CDH1-null viability vs mock 0.57.
With knock-down of HRCT1, the screen gave CDH1-null / parental viability ratio 1; CDH1-null viability vs mock 0.6.
With knock-down of PPP1R2, the record shows CDH1-null / parental viability ratio 1.28; CDH1-null viability vs mock 0.82.
With knock-down of ZNF483, the record shows CDH1-null / parental viability ratio 1.05; CDH1-null viability vs mock 0.44.
After knock-down of MORN1 the results were CDH1-null / parental viability ratio 1.21; CDH1-null viability vs mock 0.94.
For KDM7A the deposit lists CDH1-null / parental viability ratio 1.02; CDH1-null viability vs mock 0.91.

Copied from the list:
C11orf65, CDH1-null viability vs mock = 0.74
Entry of NSMCE1 under “CDH1-null / parental viability ratio”: 0.87
Result of SHMT2 in “CDH1-null / parental viability ratio”: 1.09
SCGB1D4, CDH1-null viability vs mock: 1.02
Entry for SSNA1 under “CDH1-null / parental viability ratio”: 1.33
Entry of LAMP5 under “CDH1-null / parental viability ratio”: 1.03
